Values quoted from earlier work as cited in US20230348585A1, “METHODS FOR TREATING OR REDUCING THE SEVERITY OF A VIRAL INFECTION” (St. Jude Children's Research Hospital, Inc., priority 2020, published 2023).
Where two headings read alike, the source gives them in different places. At least one compound was matched to its structure with a doubt left.

Test system: COVID-19

For `C[C@@H]1C[C@H]2[C@@H]3CCC4=CC(=O)C=C[C@]4(C)[C@@]3(F)[C@@H](O)C[C@]2(C)[C@@]1(O)C(=O)CO` [dexamethasone], the mortality (COVID-19 patients not receiving respiratory support, dexamethasone versus 13.2% in the control group, not statistically significant, P=0.14) is given as 17%, the mortality (COVID-19 patients requiring oxygen, dexamethasone versus control (25%), statistically significant reduction) is given as 21% and the mortality (COVID-19 patients requiring ventilation, dexamethasone versus control (40%), statistically significant reduction) is given as 29%.
